Test results reported in PMC2597746.
Results are given in words; binding and its absence hold for the method and conditions named. In cells and extracts the contact can be indirect. Some entries that bind do so weakly or less than the wild type.

Amino acid sequences for entries named in this document (tags omitted). A change or cut given only in a name is not applied to a line headed by its entry.
UniProt Q9NRW3, whole entry: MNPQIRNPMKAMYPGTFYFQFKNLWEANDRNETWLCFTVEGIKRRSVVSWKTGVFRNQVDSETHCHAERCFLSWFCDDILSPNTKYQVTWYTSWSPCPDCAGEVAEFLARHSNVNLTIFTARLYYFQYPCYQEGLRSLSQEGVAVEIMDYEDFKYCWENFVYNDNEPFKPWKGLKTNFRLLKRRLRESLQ
UniProt Q96AK3, whole entry: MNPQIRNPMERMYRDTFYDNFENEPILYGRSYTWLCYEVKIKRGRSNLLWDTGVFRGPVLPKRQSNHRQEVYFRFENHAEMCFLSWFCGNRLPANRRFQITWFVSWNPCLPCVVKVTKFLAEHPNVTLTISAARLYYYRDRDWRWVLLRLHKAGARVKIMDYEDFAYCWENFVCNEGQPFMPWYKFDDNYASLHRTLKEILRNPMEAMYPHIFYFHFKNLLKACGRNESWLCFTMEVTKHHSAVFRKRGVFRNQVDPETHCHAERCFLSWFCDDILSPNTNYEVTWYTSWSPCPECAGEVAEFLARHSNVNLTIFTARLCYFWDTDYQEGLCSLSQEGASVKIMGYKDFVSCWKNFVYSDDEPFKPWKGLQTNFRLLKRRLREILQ

Columns and labels:
Assay in all cases: co-IP; HEK293T co-transfected with APOBEC3-HA and WT or mutant Vif-myc; lysates (50 mM Tris-HCl pH 7.5, 150 mM NaCl, 1% Triton X-100) at 48 h immunoprecipitated with anti-myc antibody and protein G (legend: A/G) beads, 4°C, 3 h; co-precipitated APOBEC3-HA detected by immunoblot
VifRH41/42AA-myc (HIV-1) = VifRH41/42AA-myc (HIV-1) (UniProt P12504)
VifK22E-myc (HIV-1) = VifK22E-myc (HIV-1) (UniProt P12504)
VifW79A-myc (HIV-1) = VifW79A-myc (HIV-1) (UniProt P12504)
VifDR14/15AA-myc (HIV-1) = VifDR14/15AA-myc (HIV-1) (UniProt P12504)

Row | Substance | binding (VifRH41/42AA-myc (HIV-1)) | binding (VifK22E-myc (HIV-1)) | binding (VifW79A-myc (HIV-1)) | binding (VifDR14/15AA-myc (HIV-1))
1 | A3C-HA (from UniProt Q9NRW3 1-190) | binds | binds | – | –
2 | A3DE-HA (from UniProt Q96AK3 1-386) | – | – | binds | binds
